Data on two substances can be found in paper PMC3607232.

The chains behind the UniProt entries cited, without tags or fusion partners. Residues count along the entry.
UniProt Q03164, residues 2719-3969: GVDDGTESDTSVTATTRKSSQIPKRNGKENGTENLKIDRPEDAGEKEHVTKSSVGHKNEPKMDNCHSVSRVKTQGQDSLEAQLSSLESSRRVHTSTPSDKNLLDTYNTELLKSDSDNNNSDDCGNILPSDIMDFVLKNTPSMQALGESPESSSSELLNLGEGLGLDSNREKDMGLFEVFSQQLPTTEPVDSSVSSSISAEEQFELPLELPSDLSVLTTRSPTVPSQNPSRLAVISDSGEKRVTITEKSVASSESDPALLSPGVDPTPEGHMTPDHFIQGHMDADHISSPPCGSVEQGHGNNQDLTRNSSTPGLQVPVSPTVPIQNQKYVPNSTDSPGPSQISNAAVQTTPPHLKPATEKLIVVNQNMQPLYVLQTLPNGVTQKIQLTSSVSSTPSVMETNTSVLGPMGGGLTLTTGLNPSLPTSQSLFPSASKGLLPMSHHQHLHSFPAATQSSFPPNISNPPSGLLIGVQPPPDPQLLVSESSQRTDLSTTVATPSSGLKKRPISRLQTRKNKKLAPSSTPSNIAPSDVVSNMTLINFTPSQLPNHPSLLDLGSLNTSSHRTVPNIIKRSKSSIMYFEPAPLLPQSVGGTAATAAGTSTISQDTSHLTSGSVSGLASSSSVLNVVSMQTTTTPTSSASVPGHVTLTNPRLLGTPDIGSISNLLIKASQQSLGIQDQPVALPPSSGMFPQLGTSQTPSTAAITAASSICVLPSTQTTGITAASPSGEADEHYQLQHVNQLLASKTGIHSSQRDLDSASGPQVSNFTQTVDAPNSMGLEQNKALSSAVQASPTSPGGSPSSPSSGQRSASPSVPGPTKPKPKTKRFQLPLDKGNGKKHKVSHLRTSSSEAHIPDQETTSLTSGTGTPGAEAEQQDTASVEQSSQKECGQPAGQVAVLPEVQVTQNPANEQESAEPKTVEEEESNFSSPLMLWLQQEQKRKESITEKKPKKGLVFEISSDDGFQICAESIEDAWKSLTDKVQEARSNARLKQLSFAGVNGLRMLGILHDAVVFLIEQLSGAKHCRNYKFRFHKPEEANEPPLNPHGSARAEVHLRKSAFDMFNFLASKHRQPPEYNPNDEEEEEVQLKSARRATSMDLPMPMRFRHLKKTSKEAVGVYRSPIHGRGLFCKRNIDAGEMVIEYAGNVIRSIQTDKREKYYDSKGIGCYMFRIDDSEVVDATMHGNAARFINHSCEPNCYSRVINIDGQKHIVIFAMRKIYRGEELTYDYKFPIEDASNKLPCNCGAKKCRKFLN
UniProt Q01196: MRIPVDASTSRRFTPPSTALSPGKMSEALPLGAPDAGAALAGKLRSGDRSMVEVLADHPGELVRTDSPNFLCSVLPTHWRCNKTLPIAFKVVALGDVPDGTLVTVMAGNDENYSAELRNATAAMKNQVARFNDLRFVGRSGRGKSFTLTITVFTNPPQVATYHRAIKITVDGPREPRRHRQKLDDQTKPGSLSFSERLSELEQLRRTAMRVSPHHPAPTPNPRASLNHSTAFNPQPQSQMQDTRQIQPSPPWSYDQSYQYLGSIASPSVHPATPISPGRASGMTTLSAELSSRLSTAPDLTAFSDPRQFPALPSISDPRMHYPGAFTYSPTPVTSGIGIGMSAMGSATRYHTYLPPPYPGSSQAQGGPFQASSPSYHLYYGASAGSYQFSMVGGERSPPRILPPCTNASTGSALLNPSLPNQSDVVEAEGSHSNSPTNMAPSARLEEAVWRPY

These are yes or no findings as the source states them, for the method shown. In cells and extracts the contact can be indirect. Some binding calls cover weakened binding; strength is not graded here.

What all share (assay): co-IP; 500 ug RS4;11 or SEM (t(4;11)) nuclear extract in 20 mM Tris-HCl pH 7.5, 20% glycerol, 300 mM KCl, 5 mM EDTA; overnight at 4°C with anti-AF4-N, anti-RUNX1 or anti-MLL-C (rabbit IgG as control); protein A and G Dynabeads; wash at 150 mM KCl; Western blot
For experiment [1], the target named is MLL-C (human (endogenous in RS4;11, SEM and CCRF-CEM)) (UniProt Q03164).
Experiment [2] concerns the target T1, wild-type AF4 (human (endogenous in RS4;11, SEM and CCRF-CEM)) (UniProt P51825).
T1 sequence: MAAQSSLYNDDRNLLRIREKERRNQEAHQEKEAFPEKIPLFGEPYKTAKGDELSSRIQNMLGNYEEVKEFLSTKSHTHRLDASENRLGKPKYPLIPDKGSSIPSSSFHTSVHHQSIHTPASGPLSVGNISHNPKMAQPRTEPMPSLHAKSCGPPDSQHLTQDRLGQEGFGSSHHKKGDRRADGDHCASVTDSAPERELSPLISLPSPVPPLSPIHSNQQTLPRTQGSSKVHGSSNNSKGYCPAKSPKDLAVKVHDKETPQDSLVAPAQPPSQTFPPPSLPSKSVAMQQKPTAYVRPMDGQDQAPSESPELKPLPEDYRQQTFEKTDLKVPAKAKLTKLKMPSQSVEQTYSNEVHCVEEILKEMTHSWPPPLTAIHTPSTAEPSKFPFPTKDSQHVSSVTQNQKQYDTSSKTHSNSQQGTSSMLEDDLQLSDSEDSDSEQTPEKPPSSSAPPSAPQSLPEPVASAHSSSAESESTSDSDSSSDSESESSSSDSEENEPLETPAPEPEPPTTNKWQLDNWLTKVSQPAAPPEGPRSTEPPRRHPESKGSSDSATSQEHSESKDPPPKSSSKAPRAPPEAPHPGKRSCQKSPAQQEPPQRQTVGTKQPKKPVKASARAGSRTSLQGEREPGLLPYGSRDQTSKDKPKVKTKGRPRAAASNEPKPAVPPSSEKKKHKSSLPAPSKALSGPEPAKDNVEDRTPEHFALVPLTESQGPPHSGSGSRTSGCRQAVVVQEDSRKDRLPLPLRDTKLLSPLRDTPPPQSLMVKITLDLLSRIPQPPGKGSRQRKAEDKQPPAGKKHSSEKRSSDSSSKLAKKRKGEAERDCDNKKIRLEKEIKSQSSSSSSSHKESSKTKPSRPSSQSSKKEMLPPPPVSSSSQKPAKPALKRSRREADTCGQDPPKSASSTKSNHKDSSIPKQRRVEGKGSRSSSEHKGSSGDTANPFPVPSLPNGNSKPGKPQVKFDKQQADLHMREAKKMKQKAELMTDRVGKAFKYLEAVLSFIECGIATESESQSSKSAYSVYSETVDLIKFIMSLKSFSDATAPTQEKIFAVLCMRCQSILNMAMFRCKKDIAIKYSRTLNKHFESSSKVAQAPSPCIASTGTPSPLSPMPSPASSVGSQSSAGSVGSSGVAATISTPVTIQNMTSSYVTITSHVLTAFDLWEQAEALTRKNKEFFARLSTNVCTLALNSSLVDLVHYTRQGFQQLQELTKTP

The target in experiment [3] is RUNX1 (human (endogenous in RS4;11, SEM and CCRF-CEM)) (UniProt Q01196).

Consider RUNX1 (from UniProt Q01196 1-453), for which the binding result in experiment [1] and in experiment [2] was “binds” each time.
For the substance “MLL-C (from UniProt Q03164 2719-3969) (domain or fragment)”, the binding result in experiment [3] and in experiment [2] was “binds” each time.
